These results are taken from article PMC8366970.

Sequences of proteins named here, by UniProt entry; tags and fusion partners are left off. A change or cut given only in a name is not applied to a line headed by its entry.
UniProt Q8IL92: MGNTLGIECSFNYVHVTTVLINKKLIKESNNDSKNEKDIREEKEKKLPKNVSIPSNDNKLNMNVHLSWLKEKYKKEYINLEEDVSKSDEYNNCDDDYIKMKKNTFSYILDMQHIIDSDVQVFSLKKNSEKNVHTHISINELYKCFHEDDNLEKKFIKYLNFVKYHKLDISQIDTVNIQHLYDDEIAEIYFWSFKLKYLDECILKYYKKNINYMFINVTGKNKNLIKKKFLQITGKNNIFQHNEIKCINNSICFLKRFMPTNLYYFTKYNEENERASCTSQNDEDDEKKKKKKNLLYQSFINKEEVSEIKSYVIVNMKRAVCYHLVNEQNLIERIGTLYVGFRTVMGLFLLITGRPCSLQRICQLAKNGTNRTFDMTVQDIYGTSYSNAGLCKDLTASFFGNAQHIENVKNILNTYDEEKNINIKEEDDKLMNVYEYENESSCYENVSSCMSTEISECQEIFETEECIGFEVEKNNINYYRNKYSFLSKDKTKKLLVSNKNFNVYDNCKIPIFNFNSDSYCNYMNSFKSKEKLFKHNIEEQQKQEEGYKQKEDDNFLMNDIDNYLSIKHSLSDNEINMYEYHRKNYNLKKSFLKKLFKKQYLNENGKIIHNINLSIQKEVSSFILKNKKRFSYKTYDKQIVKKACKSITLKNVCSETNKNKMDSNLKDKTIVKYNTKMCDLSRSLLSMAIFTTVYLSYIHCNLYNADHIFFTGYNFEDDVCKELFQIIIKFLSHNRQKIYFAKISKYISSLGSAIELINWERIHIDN
UniProt Q8ILP4: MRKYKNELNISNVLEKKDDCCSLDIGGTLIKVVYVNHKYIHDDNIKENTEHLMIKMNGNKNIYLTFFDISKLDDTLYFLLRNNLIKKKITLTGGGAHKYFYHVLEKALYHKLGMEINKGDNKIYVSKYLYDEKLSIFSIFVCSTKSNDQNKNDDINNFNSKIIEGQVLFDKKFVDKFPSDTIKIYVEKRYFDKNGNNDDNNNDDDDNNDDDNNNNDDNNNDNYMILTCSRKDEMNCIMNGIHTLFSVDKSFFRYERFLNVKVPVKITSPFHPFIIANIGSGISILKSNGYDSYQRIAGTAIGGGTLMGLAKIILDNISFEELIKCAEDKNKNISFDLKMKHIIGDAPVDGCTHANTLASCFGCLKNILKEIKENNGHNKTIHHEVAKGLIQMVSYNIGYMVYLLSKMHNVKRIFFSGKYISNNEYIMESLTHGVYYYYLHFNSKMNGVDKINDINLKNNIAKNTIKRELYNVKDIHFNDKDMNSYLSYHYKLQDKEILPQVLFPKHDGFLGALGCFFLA

In experiment [1] the target is PfPanK2-GFP (Plasmodium falciparum) (UniProt Q8IL92). The experiment can be described thus: affinity purification with mass spectrometry; GFP-Trap immunoprecipitation from lysates of P. falciparum PfPanK1-GFP and PfPanK2-GFP lines; untagged GFP and wild-type 3D7 lines as negative controls; two replicates.
The target in experiment [2] is PfPanK1-GFP (Plasmodium falciparum) (UniProt Q8ILP4). The experiment is described as above.

These are yes or no findings as the source states them, for the method shown. Binding seen in cells or lysates may run through a third protein. Here binding means that the protein was enriched with, or labelled near, the bait; the list need not be complete.

On to PfPanK1 (from UniProt Q8ILP4) (enzyme), for which the binding entry in experiment [1] was “binds”.

As to PfPanK2 (from UniProt Q8IL92) (enzyme), the binding result in experiment [2] is “binds”.

B1: Pf14-3-3I (protein, UniProt C0H4V6 1-262)
chain: MATSEELKQLRCDCTYRSKLAEQAERYDEMADAMRTLVEQCVNNDKDELTVEERNLLSVAYKNAVGARRASWRIISSVEQKEMSKANVHNKNVAATYRKKVEEELNNICQDILNLLTKKLIPNTSESESKVFYYKMKGDYYRYISEFSCDEGKKEASNCAQEAYQKATDIAENELPSTHPIRLGLALNYSVFFYEILNQPHQACEMAKRAFDDAITEFDNVSEDSYKDSTLIMQLLRDNLTLWTSDLQGDQTEEKSKDEGLE
For B1, the binding result in experiment [2] and in experiment [1] was “binds” each time.
